Data on 48 sequences can be found in the supplement of paper PMC7877785.

The data set is described as follows: self-splicing fitness, log relative to wild type (ln ratio); higher = more splicing; Tetrahymena group I intron in knt gene, E. coli kanamycin selection, DiMSum; sequences stand for … in CUCUCU…GGAGGGAAAAGUUAUCAGGCAUGCACCUGGUAGCUAGUCUUUAAACCAAUAGAUUGCAUCGGUUUAAAAGGCAAGACCGUCAAAUUGCGGGAAAGGGGUCAACAGCCGUUCAGUACCAAGUCUCAGGGGAAACUUUGAGAUGGCCUUGCAAAGGGUAUGGUAAUAAGCUGACGGACAUGGUCCUAACCACGCAGCCAAGUCCUAAGUCAACAGAUCUUCUGUUGAUAUGGAUGCAGUUCACAGACUAAAUGUCGGUCGGGGAAGAUGUAUUCUUCUCAUAAGAUAUAGUCGGACCUCUCCUUAAUGGGAGCUAGCGGAUGAAGUGAUGCAACACUGGAGCCGCUGGGAACUAAUUUGUAUGCGAAAGUAUAUUGAUUAGUUUUGGAGUACUCGUGGUCG
In outline:
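Pooled colonies went to amplicon sequencing on an Illumina HiSeq 2500 after six replicate transformations. The plates were LB agar with 100 μg/mL carbenicillin, 50 μM IPTG and 0.2% rhamnose, with or without 25 μg/mL kanamycin, incubated overnight at 37°C or 30°C. The E. coli BL21(DE3) library had all eight P1ex-region intron nucleotides randomised, the intron placed in the knt kanamycin-resistance gene on pET-22b(+). DiMSum fitness is the error-weighted combination of replicate fold changes, kanamycin against none, normalised to wild type.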

± gives the uncertainty stated by the source. The uncertainty is large for many entries.

Regarding AUGGAGCAAUAUUACGCUGC, the “self-splicing fitness (ln)” value (30 °C) was -4.44 ± 0.74.

In the case of AGAGAGCAAUAUUACGCUAU, the “self-splicing fitness (ln)” value reads like this: (30 °C) -3.66 ± 0.6; (37 °C) -2.17 ± 0.63.

On to UUGCAGCAAUAUUACGCGGC, for which the “self-splicing fitness (ln)” value (30 °C) was -4.65 ± 0.72.

With GUUAAGCAAUAUUACGUAAC, where the note is “37 °C”, the “self-splicing fitness (ln)” value is -2.23 ± 0.56.

CGGGAGCAAUAUUACGUAGU: the “self-splicing fitness (ln)” value (30 °C) is -4.37 ± 0.73.

For UCGGAGCAAUAUUACGAAGC, the “self-splicing fitness (ln)” value (30 °C) was -2.33 ± 0.55.

With GAGGAGCAAUAUUACGGCAU, the “self-splicing fitness (ln)” value (30 °C) is -2.46 ± 0.8.

Turning to AUUAAGCAAUAUUACGAACG, the “self-splicing fitness (ln)” value reads like this: (30 °C) -1.59 ± 0.18; (37 °C) -0.243 ± 0.15.

Consider CGGAAGCAAUAUUACGUCGC, for which the “self-splicing fitness (ln)” value is, setting by setting: (30 °C) -3.3 ± 0.74; (37 °C) -1.98 ± 1.1.

On to UAUAAGCAAUAUUACGAGUC, for which the “self-splicing fitness (ln)” value (37 °C) was -2.17 ± 0.78.

Turning to AUGUAGCAAUAUUACGGAAA, the “self-splicing fitness (ln)” value (37 °C) is -2.5 ± 0.54.

In the case of UCAUAGCAAUAUUACGUUAA, the “self-splicing fitness (ln)” value (30 °C) was -3.75 ± 0.52.

For the sequence CUCCAGCAAUAUUACGCGUA, the “self-splicing fitness (ln)” value (30 °C) was -4.05 ± 1.

With GUUGAGCAAUAUUACGCCGA, for the setting “37 °C”, the “self-splicing fitness (ln)” value is -1.69 ± 1.2.

Regarding GGUCAGCAAUAUUACGUGGC, the “self-splicing fitness (ln)” value (30 °C) is -4.71 ± 0.72 and the “self-splicing fitness (ln)” value (37 °C) was -3.49 ± 0.52.

For the sequence ACGUAGCAAUAUUACGCGAU, the “self-splicing fitness (ln)” value reads like this: (30 °C) -3.01 ± 0.14; (37 °C) -1.5 ± 0.11.

UCACAGCAAUAUUACGCACC: the “self-splicing fitness (ln)” value (37 °C) was -3.01 ± 1.

As to GUUGAGCAAUAUUACGAGAC, the “self-splicing fitness (ln)” value (30 °C) is -1.86 ± 0.52.

CCCAAGCAAUAUUACGUGGC: the “self-splicing fitness (ln)” value by setting is: (30 °C) -3.5 ± 0.13; (37 °C) -2.8 ± 0.18.

For the sequence UCUGAGCAAUAUUACGAUUC, the “self-splicing fitness (ln)” value (37 °C) is -3.33 ± 1.

For the sequence UUCGAGCAAUAUUACGCCGU, the “self-splicing fitness (ln)” value was 0.0702 ± 0.55 (30 °C) and -2.86 ± 0.62 (37 °C).

Take GCCCAGCAAUAUUACGACAU: the “self-splicing fitness (ln)” value is -1.515 ± 0.012 (30 °C) and -0.82 ± 0.032 (37 °C).

For the sequence UGGGAGCAAUAUUACGUCAU, the “self-splicing fitness (ln)” value was -2.99 ± 0.55 (30 °C) and -3.61 ± 0.6 (37 °C).

Consider UUCGAGCAAUAUUACGUUAC, for which, where the note is “37 °C”, the “self-splicing fitness (ln)” value is -2.18 ± 1.1.

As to UAGGAGCAAUAUUACGCAGC, for the setting “30 °C”, the “self-splicing fitness (ln)” value was -4.73 ± 0.51.

On to ACUGAGCAAUAUUACGGAAC, for which the “self-splicing fitness (ln)” value (30 °C) is -3.67 ± 0.61.

For the sequence GUGGAGCAAUAUUACGGCGC, the “self-splicing fitness (ln)” value is -1.42 ± 0.27 (30 °C) and -0.0496 ± 0.26 (37 °C).

Turning to UCAGAGCAAUAUUACGCUCG, the “self-splicing fitness (ln)” value by setting is: (30 °C) -1.55 ± 1.2; (37 °C) -0.78 ± 0.6.

In the case of CACAAGCAAUAUUACGGGUC, the “self-splicing fitness (ln)” value was -3.43 ± 0.1 (30 °C) and -2.2 ± 0.12 (37 °C).

As for CUCGAGCAAUAUUACGCUGC, the “self-splicing fitness (ln)” value (37 °C) is -2.71 ± 0.76.

GUCGAGCAAUAUUACGGGUC: the “self-splicing fitness (ln)” value (37 °C) was -2.97 ± 0.61.

Regarding CCGGAGCAAUAUUACGCUGC, for the setting “30 °C”, the “self-splicing fitness (ln)” value is -2.87 ± 0.78.

With UUAGAGCAAUAUUACGAAGC, the “self-splicing fitness (ln)” value reads like this: (30 °C) -3 ± 0.76; (37 °C) -2.12 ± 0.54.

For the sequence UUAGAGCAAUAUUACGAACC, the “self-splicing fitness (ln)” value (30 °C) was -2.64 ± 0.6.

Consider AUAGAGCAAUAUUACGCCAC, for which the “self-splicing fitness (ln)” value was -3.49 ± 0.74 (30 °C) and -0.792 ± 0.52 (37 °C).

As for CUUCAGCAAUAUUACGAGUA, the “self-splicing fitness (ln)” value (30 °C) was -1.21 ± 0.4 and the “self-splicing fitness (ln)” value (37 °C) is -3.37 ± 0.73.

Consider CUCGAGCAAUAUUACGGCGC, for which the “self-splicing fitness (ln)” value (37 °C) was -0.693 ± 0.71.

Regarding ACAAAGCAAUAUUACGAUCG, the “self-splicing fitness (ln)” value reads like this: (30 °C) -0.241 ± 0.074; (37 °C) 0.193 ± 0.095.

For ACAGAGCAAUAUUACGAUCA, the “self-splicing fitness (ln)” value (37 °C) is 0.0082 ± 0.66.

Turning to AUGGAGCAAUAUUACGGUGC, where the note is “37 °C”, the “self-splicing fitness (ln)” value is -3.03 ± 0.6.

On to UCGGAGCAAUAUUACGCCCU, for which the “self-splicing fitness (ln)” value (37 °C) is -2.16 ± 0.57.

As for UGAUAGCAAUAUUACGACAC, where the note is “30 °C”, the “self-splicing fitness (ln)” value is -4.97 ± 0.73.

Regarding ACCUAGCAAUAUUACGGAAC, the “self-splicing fitness (ln)” value (37 °C) is -2.64 ± 0.54.

On to UCAGAGCAAUAUUACGGAGU, for which the “self-splicing fitness (ln)” value is, setting by setting: (30 °C) -4.27 ± 0.73; (37 °C) -4.11 ± 0.72.

For AGUGAGCAAUAUUACGUGUC, the “self-splicing fitness (ln)” value is, setting by setting: (30 °C) -3.88 ± 0.6; (37 °C) -2.2 ± 0.64.

Consider CUAGAGCAAUAUUACGGCCA, for which, under “37 °C”, the “self-splicing fitness (ln)” value was -1.6 ± 0.59.

For AGGGAGCAAUAUUACGGGAA, the “self-splicing fitness (ln)” value was -1.37 ± 0.38 (30 °C) and -2.58 ± 0.37 (37 °C).

For the sequence CUUCAGCAAUAUUACGCUUU, the “self-splicing fitness (ln)” value is -4.78 ± 0.58 (30 °C) and -2.85 ± 0.31 (37 °C).
